The list is a part of this screen's results and no random one: it is rich in T/C values a quarter to a half above the control, in often repeated tests (any T/C) and in doses without a T/C. Other doses and runs of a compound stand elsewhere. T/C: endpoint of the treated group in % of that of the vehicle group. Some entries give survivors of the animals treated and no T/C: the source holds a T/C of zero for them, seemingly a mark for toxic or unscored doses. Some survivor counts are full or nearly so, which does not show that the dose was tolerated: the source hardly ever lists a survival T/C far under the control, and the zero likely stands for such cases as well. Survivors were counted at the toxicity check, usually on the fifth day, unless a day is given; later deaths do not show. Schedules are NCI's codes, read here as Q, the interval in days (D) or hours (H), X, the number of doses. Some entries were tested several times; the values are given in rising order. Where survival is the endpoint, the PubChem record calls one and a half times the control and up active, and a quarter to a half above the control has no call in these data; cut-offs in other NCI protocols can differ. Some T/C values carry the count of animals alive at the toxicity check (mostly the fifth day); without a count, all were alive then.
Test system: B6C3F1 mice, Lewis lung carcinoma iv, survival T/C
Experiment: NCI In Vivo Anticancer Drug Screen. Data for tumor model Lewis Lung Carcinoma (intravenous) in B6C3F1 mice
Settings: T/C endpoint: median survival time, schedule: Q01DX009 (ip), higher T/C = longer survival
How it was run: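 Transplantable tumor in mice; compound treated vs vehicle controls; read-out survival; value = treated/control (T/C).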

[1] = dose: 400.0 mg/kg/injection, vehicle: saline
[2] = dose: 400.0 mg/kg/injection, vehicle: Klucel (hydroxypropylcellulose) (HPC)
[3] = dose: 100.0 mg/kg/injection, vehicle: saline with Tween-80
[4] = dose: 200.0 mg/kg/injection, vehicle: Klucel (hydroxypropylcellulose) (HPC)
[5] = dose: 50.0 mg/kg/injection, vehicle: saline with Tween-80
[6] = dose: 200.0 mg/kg/injection, vehicle: saline with Tween-80
[7] = dose: 400.0 mg/kg/injection, vehicle: saline with Tween-80
[8] = dose: 400.0 mg/kg/injection, vehicle: suspension in saline
[9] = dose: 8.0 mg/kg/injection, vehicle: saline

`CC(C)(C)c1ccc(CN2CCN(C(c3ccccc3)c3ccc(Cl)cc3)CC2)cc1` (centres undefined) was tested, and the survivor count (dose: 128.0 mg/kg/injection, vehicle: Klucel (hydroxypropylcellulose) (HPC)) was 8 of 10 and the survivor count (dose: 256.0 mg/kg/injection, vehicle: Klucel (hydroxypropylcellulose) (HPC)) was 2 of 9.
For `COC(OC(CO)C(O)S(=O)(=O)O)C(O)S(=O)(=O)O` (centres undefined), the survivor count [1] was 6 of 10.
For `Cn1cc(C2NC(=O)c3ccccc3N2)c2ccccc21` (centres undefined), the survivor count [2] was 6 of 10.
`CCN(CC)Cc1cc2[nH]c3c4ccc(Cl)cc4ncc3c2cc1OC` was tested, and the survivor count [3] was 2 of 10.
With `CCCCCNc1ncnc2c(C)[nH]nc12` the survivor count [4] was 4 of 10 and the survivor count [2] was 0 of 10.
For `Nc1cc2c3c(cccc3c1)C(=O)N(CCN1CCCC1)C2=O`, the T/C [5] was 138 % of control and the survivor count [3] was 10 of 10.
With `N=C(N)Sc1cc(O)ccc1O` the survivor count [1] was 0 of 10.
`CC(C)(C)N1CC1CNC(=O)C(=O)NCC1CN1C(C)(C)C` (centres undefined) was tested, and the survivor count (dose: 25.0 mg/kg/injection, vehicle: saline with Tween-80) was 10 of 10.
For `C[C@H](N)C(=O)N[C@@H]1[C@H]2C(=C(O)C[C@@H](O)[C@@H]2O)C(=O)O[C@@H]1C`, the T/C (dose: 1200.0 mg/kg/injection, vehicle: saline) was 125 % of control and the survivor count (dose: 2400.0 mg/kg/injection, vehicle: saline) was 1 of 10 and 4 of 10.
With `O=C1SC(c2ccccc2)=S=C1c1ccccc1` the survivor count (dose: 800.0 mg/kg/injection, vehicle: saline with Tween-80) was 8 of 10.
In the case of `O=CC(S)CO` (centres undefined), the survivor count [1] is reported as 4 of 10 and 8 of 10.
`CN(C)C1C(=O)C(C(=O)NP(=O)(NCCCO)N(CCCl)CCCl)=C(O)C2(O)C(=O)C3=C(O)c4c(O)cccc4C(C)(O)C3CC12` (centres undefined) was tested, and the survivor count [6] was 9 of 9 and the survivor count [7] was 10 of 10.
`O=C(C1CO1)C(Cl)(Cl)Cl` (centres undefined) was tested, and the survivor count [5] was 1 of 8, the survivor count [3] was 0 of 8 and the survivor count [6] was 0 of 8.
For `C=CCOCC1CO1` (centres undefined), the survivor count [1] was 1 of 10.
With `O=C1N[C@H]2[C@H](CS[C@H]2CCCCC(=O)N(CCP(c2ccccc2)c2ccccc2)CCP(c2ccccc2)c2ccccc2)N1` the survivor count (dose: 100.0 mg/kg/injection, vehicle: Klucel (hydroxypropylcellulose) (HPC)) was 10 of 10 and the survivor count [2] was 10 of 10.
`O=C(O)c1cc(Cc2ccc(O)c(C(=O)O)c2)ccc1O` (tested in a mixture with another compound) was tested, and the survivor count [4] was 1 of 10.
With `Cn1cnc([N+](=O)[O-])c1Sc1nc(N)nc2c1ncn2C1OC(CO)C(O)C1O` (centres undefined) the survivor count (dose: 12.5 mg/kg/injection, vehicle: suspension in saline) was 10 of 10.
For `OCCN1CCN(CC/C=C2/c3ccccc3Sc3ccc(Cl)cc32)CC1`, the survivor count (dose: 50.0 mg/kg/injection, vehicle: saline) was 4 of 10.
`O=C(C/C(=N\C(=S)Nc1cc(C(F)(F)F)ccc1Cl)NO)N1CCCC1` was tested, and the survivor count [6] was 0 of 10 and the survivor count [7] was 0 of 10.
For `Cc1c(-c2ccc(C3CCCCC3)cc2)nc2ccc(F)cc2c1C(=O)O`, the survivor count [2] was 10 of 10.
`CCCCNC(C)[C@]1(O)Cc2c(O)c3c(c(O)c2[C@@H](OC2CC(N)C(O)C(C)O2)C1)C(=O)c1c(OC)cccc1C3=O` (some centres undefined) was tested, and the survivor count (dose: 10.0 mg/kg/injection, vehicle: water) was 10 of 10.
`Cc1ccc2nc(-c3ccc4nc(-c5ccc(N=Nc6ccc(-c7nc8ccc(-c9nc%10ccc(C)c(S(=O)(=O)O)c%10s9)cc8s7)cc6)cc5)sc4c3)sc2c1S(=O)(=O)O` was tested, and the survivor count (dose: 200.0 mg/kg/injection, vehicle: suspension in saline) was 9 of 10 and the survivor count [8] was 1 of 10.
In the case of `CCCCCCCCCCCCCCCCP(=O)(OCCOCCCCCC)OCCOCCCCCC`, the survivor count (dose: 100.0 mg/kg/injection, vehicle: suspension in saline) is reported as 1 of 10.
`COc1cccc2c1C(=N)c1c(O)c3c(c(O)c1C2=O)C[C@@](O)(C(C)=O)C[C@@H]3OC1CC(N)C(O)C(C)O1` (some centres undefined) was tested, and the survivor count [9] was 10 of 10 and the survivor count (dose: 16.0 mg/kg/injection, vehicle: saline) was 10 of 10.
`BrCCC1(CCBr)CCCCC1` was tested, and the survivor count (dose: 800.0 mg/kg/injection, vehicle: water) was 6 of 10.
For `O=C1C(O)=C(c2ccccc2)C(=O)C(O)=C1c1ccccc1`, the survivor count [3] was 4 of 10 and the survivor count (dose: 100.0 mg/kg/injection, vehicle: saline) was 5 of 10.
For `COC(=O)[C@@]12OC[C@]34[C@H]([C@@H](O)[C@@H]1O)[C@@]1(C)CC(=O)C(O)=C(C)[C@@H]1C[C@H]3OC(=O)[C@H](OC(=O)/C=C(\C)C(C)C)[C@@H]24`, the survivor count (dose: 2.0 mg/kg/injection, vehicle: saline + alcohol) was 3 of 10 and the survivor count (dose: 4.0 mg/kg/injection, vehicle: saline + alcohol) was 4 of 10.
With `N[C@@H](Cc1ccc(N(CCCl)CCCl)cc1)C(=O)O` the T/C (dose: 4.0 mg/kg/injection, vehicle: saline) was 125 % of control and the survivor count [9] was 10 of 10.
`C=C1C(=O)OC2/C=C(\C)CC(O)/C=C(/CO)CC(OC(=O)/C(C)=C/C)C12` (centres undefined) was tested, and the survivor count (dose: 60.0 mg/kg/injection, vehicle: saline with Tween-80) was 10 of 10 and the survivor count (dose: 120.0 mg/kg/injection, vehicle: saline with Tween-80) was 4 of 10.
With `COc1ccc2c(ccc3oc([N+](=O)[O-])cc32)c1` the survivor count [6] was 10 of 10.
`COc1cccc2c1C(=O)c1c(O)c3c(c(O)c1C2=O)C[C@@](O)(C(=O)CO)C[C@@H]3OC1CC(OC(C)=O)C(OC(C)=O)C(C)O1` (some centres undefined) was tested, and the T/C (dose: 6.0 mg/kg/injection, vehicle: water) was 133 % of control, the T/C (dose: 6.25 mg/kg/injection, vehicle: distilled water + Tween-80) was 133 % of control [9 of 10 alive] and the T/C (dose: 6.25 mg/kg/injection, vehicle: water) was 145 % of control. The survivor count (dose: 12.5 mg/kg/injection, vehicle: water) was 9 of 10, the survivor count (dose: 24.0 mg/kg/injection, vehicle: water) was 10 of 10 and the survivor count (dose: 25.0 mg/kg/injection, vehicle: distilled water + Tween-80) was 10 of 10. For the same molecule, the survivor count (dose: 25.0 mg/kg/injection, vehicle: water) was 10 of 10.
In the case of `Nc1ccc2c(c1)CN1C(=O)c3ccccc3C1=N2`, the T/C (dose: 12.5 mg/kg/injection, vehicle: saline with Tween-80) is reported as 130 % of control [9 of 10 alive], the survivor count [3] is reported as 5 of 10 and the survivor count [6] is reported as 1 of 10.
In the case of `CC1=NNC(=O)C1CCO` (centres undefined), the T/C (dose: 12.5 mg/kg/injection, vehicle: Klucel (hydroxypropylcellulose) (HPC)) is reported as 126 % of control and the T/C (dose: 25.0 mg/kg/injection, vehicle: Klucel (hydroxypropylcellulose) (HPC)) is reported as 141 % of control.
With `COC(=O)Nc1cn2ccc(C(Cl)=C(Cl)Cl)cc2n1` the T/C (dose: 50.0 mg/kg/injection, vehicle: Klucel (hydroxypropylcellulose) (HPC)) was 127 % of control.
In the case of `CNC(=O)Oc1ccc[nH]c1=O`, the survivor count (dose: 512.0 mg/kg/injection, vehicle: saline with Tween-80) is reported as 7 of 10.
For `NC(=S)c1cn(C2OC(CO)C(O)C2O)c2ncnc(N)c12` (centres undefined), the survivor count (dose: 10.0 mg/kg/injection, vehicle: suspension in saline) was 7 of 10.
With `COC1=C2C[C@@H](C)C[C@@H](OC)[C@@H](O)[C@H](C)/C=C(\C)[C@@H](OC(N)=O)[C@H](OC)/C=C\C=C(/C)C(=O)NC(=CC1=O)C2=O` the survivor count (dose: 4.0 mg/kg/injection, vehicle: saline with Tween-80) was 6 of 10.
In the case of `O=C1OC(=O)[C@H]2[C@@H]1[C@H]1C=C[C@@H]2OC1=O`, the survivor count [8] is reported as 6 of 10.
For `Cn1cnc([N+](=O)[O-])c1Sc1ncn[nH]1`, the survivor count (dose: 200.0 mg/kg/injection, vehicle: saline) was 6 of 10 and the survivor count [1] was 4 of 10.
